Results as given in the supplement of paper PMC10735217.
Counter-ions that a name gives are not always drawn. The list shows a part of the results. Repeats in this data set agree poorly, so a single value says little.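 The human kidney-derived cells carry a stably integrated construct of eight TEAD-binding elements driving luciferase, read by luminescence in a drug-repurposing library screen. A compound counts as a hit when its signal is more than five robust Z scores above the plate mean.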

Tested on: HEK293A TEAD-LUC reporter
Assay: TEAD-luciferase reporter activity (YAP activation), robust Z score vs plate; higher = stronger YAP/TEAD activation
Conditions: 24 h

Row | SMILES | TEAD-luciferase reporter activity (compound concentration: 200 nM) | TEAD-luciferase reporter activity (compound concentration: 2 uM) | TEAD-luciferase reporter activity (compound concentration: 10 uM)
1 | CCC12CCCN3CCc4c(n(c5ccccc45)C(=O)C1)C32 (stereo not given) [vinburnine] | inactive: -1.17 | inactive: 4.05 | inactive: 0.586
2 | CCOC(=O)/C=C1\SC(N2CCCCC2)C(=O)N1C (stereo not given) [dexetozoline] | inactive: -1.37 | inactive: 3.03 | inactive: 4.46
3 | CN(C(=O)CN1C(=O)COc2cc(Cl)c(Cl)cc21)[C@@H](CN1CCOCC1)c1ccc(-c2ccc(C(=O)O)cc2)cc1 | inactive: -0.65 | inactive: -0.264 | inactive: 0.295
4 | Cc1ccc(Nc2nccc(N(C)c3ccc4c(C)n(C)nc4c3)n2)cc1S(N)(=O)=O [pazopanib hydrochloride (ophthalmic)] | active: 7.72 | inactive: -1.55 | inactive: -1.59
5 | COCCO[C@@H]1c2ccn3c(C)c(C)nc3c2N[C@H](c2ccccc2)[C@H]1O [soraprazan] | inactive: -0.201 | inactive: 0.0645 | inactive: 3.91
6 | O=C1NC(=O)C2(CCOc3ccc(F)cc32)N1 (stereo not given) [Sorbinil] | inactive: -0.39 | inactive: -0.234 | inactive: -0.272
7 | CS(=O)(=O)Nc1ccc(F)c(C(O)CN)c1 (stereo not given) [Garomefrine hydrochloride] | inactive: -0.0634 | inactive: 0.81 | inactive: -0.122
8 | CN1CCN(CCCN2c3ccccc3Sc3ccccc32)CC1 | inactive: 0.0996 | inactive: -0.571 | inactive: -0.705
9 | CCOC(=O)c1[nH]c2cc(OC)c(OC)cc2c1CCN1CCN(c2ccccc2)CC1 | inactive: -0.83 | inactive: -0.596 | inactive: 0.173
10 | CCC[C@H](N[C@H]1CCc2cc(F)cc(F)c2C1)C(=O)Nc1cn(C(C)(C)CNCC(C)(C)C)cn1 | inactive: -0.534 | inactive: -0.686 | inactive: -0.342
11 | O=C(NC[C@]1(CC2CC2)CC[C@H](S(=O)(=O)CC2CC2)CC1)c1ccc(Cl)cc1Cl [GlyT1 inhibitor, Merck &amp_:_ Co] |  | inactive: 0.737 | 
12 | O=C(NC[C@]1(CC2CC2)CC[C@H](S(=O)(=O)CC2CC2)CC1)c1ccc(Cl)cc1Cl [GlyT1 inhibitor, Merck &amp] | inactive: -1.25 |  | inactive: -0.616
13 | CN1C(=O)C2(CCCN(C(=O)c3ccc(Cl)cc3)C2)Cc2ccccc21 (stereo not given) | inactive: 0.0662 |  | inactive: 0.513
14 | O=C(c1cc(Br)cn2ccnc12)N1CCC(N2CCCCC2)CC1 | inactive: -0.143 |  | inactive: 1.63
15 | Cc1nccn1CC1CCc2c(c3ccccc3n2C)C1=O [(R)-ondansetron] |  | inactive: -0.829 | 
16 | Cc1nccn1CC1CCc2c(c3ccccc3n2C)C1=O (stereo not given) | active: 5.5 |  | inactive: 2.05
17 | N#Cc1c[nH]c2c(C(=O)N3CCN(CCc4ccc(F)cc4)CC3)cccc12 [pruvanserin] | inactive: -1.96 | inactive: 0.477 | inactive: -0.659
18 | N/C(=N/c1ccccc1)c1ccc(N)cc1 | inactive: -1.69 | inactive: -0.798 | inactive: -0.459
19 | CC(=O)NC[C@H]1CN(c2ccc(N3CCSCC3)c(F)c2)C(=O)O1 [sutezolid] | inactive: 0.332 | inactive: 0.341 | inactive: 0.866
20 | FC(F)(F)c1ccc2c(c1)N(CCCN1CCN(CCC3OCCCO3)CC1)c1ccccc1S2 | inactive: 0.109 | inactive: 1.24 | inactive: 1.11
21 | COCCOc1cnc(NS(=O)(=O)c2ccccc2)nc1 [Glymidine] | inactive: -1.16 | inactive: 0.805 | inactive: -0.045
22 | NC(=O)N(O)CC1=Cc2cc(Oc3ccccc3)ccc2OC1 | inactive: -3.31 | inactive: -0.312 | inactive: 3.45
23 | NC(=O)N1CC(Oc2cccc(C(F)(F)F)c2)C1 [Dezinamide] | inactive: 0.39 | inactive: 0.256 | inactive: -0.724
24 | CCCN1CCCCC12Cc1ccccc1CN(C(C)=O)C2 (stereo not given) | inactive: -0.423 |  | inactive: 0.0826
25 | C[C@@H]1CCC[C@H](C)N1NC(=O)c1ccc(Cl)c(S(N)(=O)=O)c1 [Clopamide] | inactive: -0.686 | inactive: -1.34 | inactive: 2.16
26 | COc1ccccc1CC(=N)N1C[C@@H]2C(=O)CCC(c3ccccc3)(c3ccccc3)[C@@H]2C1 | inactive: 0.0662 | inactive: -1.36 | inactive: 2.76
27 | COc1ccc(C(=O)N2Cc3ccccc3CC23CCCN(C(=O)CCCN)C3)cc1 (stereo not given) | inactive: 2.65 |  | inactive: 0.315
28 | O=[N+]([O-])c1nccn1COC(CO)CO | inactive: -0.527 | inactive: 0.145 | active: 11.3

Complete entries from above:
COCCO[C@@H]1c2ccn3c(C)c(C)nc3c2N[C@H](c2ccccc2)[C@H]1O [soraprazan] as listed: TEAD-luciferase reporter activity (compound concentration: 200 nM): inactive: -0.201; TEAD-luciferase reporter activity (compound concentration: 2 uM): inactive: 0.0645; TEAD-luciferase reporter activity (compound concentration: 10 uM): inactive: 3.91
CCCN1CCCCC12Cc1ccccc1CN(C(C)=O)C2 (stereo not given) as listed: TEAD-luciferase reporter activity (compound concentration: 200 nM): inactive: -0.423; TEAD-luciferase reporter activity (compound concentration: 10 uM): inactive: 0.0826
Cc1ccc(Nc2nccc(N(C)c3ccc4c(C)n(C)nc4c3)n2)cc1S(N)(=O)=O [pazopanib hydrochloride (ophthalmic)] as listed: TEAD-luciferase reporter activity (compound concentration: 200 nM): active: 7.72; TEAD-luciferase reporter activity (compound concentration: 2 uM): inactive: -1.55; TEAD-luciferase reporter activity (compound concentration: 10 uM): inactive: -1.59
Cc1nccn1CC1CCc2c(c3ccccc3n2C)C1=O (stereo not given) as listed: TEAD-luciferase reporter activity (compound concentration: 200 nM): active: 5.5; TEAD-luciferase reporter activity (compound concentration: 10 uM): inactive: 2.05

Further results.

Row | SMILES | TEAD-luciferase reporter activity (compound concentration: 200 nM) | TEAD-luciferase reporter activity (compound concentration: 2 uM) | TEAD-luciferase reporter activity (compound concentration: 10 uM)
29 | CCCCCCCCCC1(C)OCC(COC(N)=O)O1 (stereo not given) | inactive: 2.02 | inactive: 0.136 | inactive: 0.199
30 | CC(=N)NCCS(=O)(=O)C[C@H](N)C(=O)O | inactive: 1.85 | inactive: -1.61 | inactive: 3.35
31 | CCC(CC)Nc1cc(C)nc(Oc2c(C)cc(C)cc2C)c1C | inactive: -0.262 | inactive: 0.769 | inactive: 0.036
32 | OC[C@H]1O[C@@H](n2cnc3c(O)ncnc32)[C@@H](O)[C@@H]1O | inactive: 0.0495 | inactive: -1.57 | inactive: -0.341
33 | [OH][Ca][OH] | inactive: -0.251 | inactive: -1.04 | inactive: -0.438
34 | CN1C[C@@H]2C[C@H]1CN2c1cc2c(cc1F)c(=O)c(C(=O)O)cn2C1CC1 | inactive: -1.37 |  | inactive: 1.52
35 | CN1C[C@@H]2C[C@H]1CN2c1cc2c(cc1F)c(=O)c(C(=O)O)cn2C1CC1 [Danofloxacin mesylate] |  | inactive: 1.02 | 
36 | CCCCCCOC(=O)/N=C(/N)c1ccc(NCc2nc3cc(C(=O)N(CCC(=O)OCC)c4ccccn4)ccc3n2C)cc1 [Dabigatran etexilate mesilate] |  | inactive: -1.17 | 
37 | CCCCCCOC(=O)/N=C(/N)c1ccc(NCc2nc3cc(C(=O)N(CCC(=O)OCC)c4ccccn4)ccc3n2C)cc1 [prodrug Dabigatran etexilate mesilate] | inactive: -0.913 |  | inactive: 4.52
38 | O=C(O)c1ccc2c(C3CCCCC3)c3n(c2c1)CCOc1cc(OCc2ccccc2)ccc1-3 | inactive: -0.0137 | inactive: -1.28 | active: 5.85
39 | CNc1ccc(N2CCN(C(=O)[C@]3(C)CCc4c(C)c(O)c(C)c(C)c4O3)CC2)cc1 | inactive: -1.31 | inactive: 1.6 | inactive: -0.647
40 | C#Cc1cccc(Nc2ncnc3cc4c(cc23)OCCOCCOCCO4)c1 [Icotinib] | inactive: 0.598 |  | inactive: -0.725
41 | C#Cc1cccc(Nc2ncnc3cc4c(cc23)OCCOCCOCCO4)c1 [Icotinib hydrochloride] |  | inactive: 0.269 | 
42 | O=C(O)CCC(=O)N1Cc2ccccc2CC2(CCCN2CC2CCCCC2)C1 (stereo not given) | active: 7.96 |  | inactive: -0.386
43 | Cc1ccc2c(Br)cc(Br)c(OC(=O)c3ccco3)c2n1 | inactive: 3.56 | inactive: 0.887 | inactive: 2.38
44 | [NH-]c1c[n+](N2CCOCC2)no1 | inactive: 2.7 | inactive: 1.33 | inactive: 2.19
45 | [NH-]c1c[n+](N2CCOCC2)no1 [Linsidomine] |  | inactive: 1.18 | 
46 | NC(N)=NCCC[C@H](NC(=O)[C@H](CCCN=C(N)N)NC(=O)[C@H](CCCN=C(N)N)NC(=O)[C@H](CCCN=C(N)N)NC(=O)[C@H](CCCN=C(N)N)NC(=O)[C@H](CCCN=C(N)N)NC(=O)[C@H](CCCN=C(N)N)NC(=O)[C@H](CCCN=C(N)N)NC(=O)[C@@H](N)CCCN=C(N)N)C(=O)O | inactive: -1.08 | inactive: -0.609 | inactive: 0.351
47 | CCCCN1C[C@H](OC(=O)CCC)[C@@H](OC(=O)CCC)[C@H](OC(=O)CCC)[C@H]1COC(=O)CCC | inactive: -1.13 | inactive: -1.69 | inactive: -0.153
48 | NCC(=O)[O][Cu][O]C(=O)CN [Cupric Glycinate] | inactive: -0.91 | inactive: 3.13 | inactive: -1.28
49 | Clc1ccc(C2=CCCNC23CCCCC3)cc1 | inactive: -0.503 | inactive: -1.24 | inactive: -0.113
50 | COc1ccc(C[C@@H]2NC(=O)[C@H](CC(=O)O)NC(=O)CNC(=O)[C@H](CCCNC(=N)N)NC(=O)[C@@H]3CCCN3C(=O)[C@H](CC(N)=O)NC(=O)[C@@H](NC(C)=O)CSSC[C@@H](C(N)=O)NC(=O)[C@H](CCCNC(=N)N)NC2=O)cc1 | inactive: 1.6 | inactive: -1.04 | inactive: -0.907
51 | CNC(=O)O[C@H]1COc2ccc(N3CCN(C4COC4)CC3)cc2[C@@H]1NC(=O)c1ccc(F)cc1 | inactive: 0.283 | inactive: 2.16 | inactive: 0.67
52 | C#C[C@H](CC(=O)OCC)NC(=O)CCC(=O)Nc1ccc(C(=N)N)cc1 [Xemilofiban Hydrochloride] | inactive: -0.964 | inactive: -1.13 | inactive: -0.801
53 | CCS(=O)(=O)N1CCC[C@@H]2CN3CCc4cc(OC)ccc4[C@@H]3C[C@@H]21 | inactive: 0.942 | inactive: 0.472 | inactive: -1.56
54 | CCO[C@@H]1OC(=O)CC1NC(=O)[C@@H]1CCCN1C(=O)[C@@H](NC(=O)c1ccc(N)c(Cl)c1)C(C)(C)C (stereo not given in full) | inactive: -0.221 |  | inactive: -1.53
55 | CCO[C@@H]1OC(=O)CC1NC(=O)[C@@H]1CCCN1C(=O)[C@@H](NC(=O)c1ccc(N)c(Cl)c1)C(C)(C)C (stereo not given in full) [Belnacasan] |  | inactive: -0.748 | 
